Assay results as given in paper PMC11754801, “The molecular basis of Human FN3K mediated phosphorylation of glycated substrates” (Nature Communications, 2025).
No constants are given. Whether binding was seen depends on the method and setting.

Experiments:
HsFN3K C24S (human) [1] = molecular target: HsFN3K C24S (human) (UniProt Q9H479); experiment: non-reducing SDS-PAGE; 5 µg protein incubated 20 min without DTT in MicroKit SEC buffer at room temperature; sample buffer without reducing agent; both purified
HsFN3K C24S (human) [2] = molecular target: HsFN3K C24S (human) (UniProt Q9H479); experiment: SEC; Micro Kit SEC, Superdex 200 increase 3.2/300; 20 µg (~28 µM) protein; HEPES 25 mM pH 7.5, NaCl 150 mM, non-reducing; 20 min incubation before injection; both purified

B1: HsFN3K C24S (enzyme, UniProt Q9H479 1-309)
chain: MEQLLRAELRTATLRAFGGPGAGSISEGRAYDTDAGPVFVKVNRRTQARQMFEGEVASLEALRSTGLVRVPRPMKVIDLPGGGAAFVMEHLKMKSLSSQASKLGEQMADLHLYNQKLREKLKEEENTVGRRGEGAEPQYVDKFGFHTVTCCGFIPQVNEWQDDWPTFFARHRLQAQLDLIEKDYADREARELWSRLQVKIPDLFCGLEIVPALLHGDLWSGNVAEDDVGPIIYDPASFYGHSEFELAIALMFGGFPRSFFTAYHRKIPKAPGFDQRLLLYQLFNYLNHWNHFGREYRSPSLGTMRRLLK
With B1 the binding (HsFN3K C24S (human) [1]) was “no binding (tested: 5 µg)” and the binding (HsFN3K C24S (human) [2]) was “no binding (tested: 20 µg (~28 µM))”.
